Assay in all cases: glycan array binding signal (z-score within array); higher = stronger binding
What all share (conditions): glycan notation: IUPAC condensed, linker removed

Assay [1] concerns the target Neu5Gc(a2-8)Neu5Gc(a2-3)Gal(b1-4)GlcNAc(b1-3)Gal(b1-4)GlcNAc. An outline of the steps:
(§1)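 Columns mapping to the same glycan were averaged after glycan names were converted to IUPAC-condensed notation. The data come from 3228 arrays in the Consortium for Functional Glycomics database, limited to those with an available protein sequence. Binding is reported as a within-array Z-score averaged across arrays of one protein sequence and across linkers.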

The target in assay [2] is Neu5Gc(a2-8)Neu5Gc(a2-6)Gal(b1-4)GlcNAc. An outline of the steps: as §1
Assay [3] concerns the target Neu5Gc(b2-6)Gal(b1-4)GlcNAc. An outline of the steps:
as §1

The list shows a part of the results.

B1: DC-Sign-R (Homo sapiens), Q9H2X3 (protein)
chain: MSDSKEPRVQQLGLLEEDPTTSGIRLFPRDFQFQQIHGHKSSTGCLGHGALVLQLLSFMLLAGVLVAILVQVSKVPSSLSQEQSEQDAIYQNLTQLKAAVGELSEKSKLQEIYQELTQLKAAVGELPEKSKLQEIYQELTRLKAAVGELPEKSKLQEIYQELTRLKAAVGELPEKSKLQEIYQELTRLKAAVGELPEKSKLQEIYQELTELKAAVGELPEKSKLQEIYQELTQLKAAVGELPDQSKQQQIYQELTDLKTAFERLCRHCPKDWTFFQGNCYFMSNSQRNWHDSVTACQEVRAQLVVIKTAEEQNFLQLQTSRSNRFSWMGLSDLNQEGTWQWVDGSPLSPSFQRYWNSGEPNNSGNEDCAEFSGSGWNDNRCDVDNYWICKKPAACFRDE
Regarding B1, the “glycan array binding signal (z-score)” value in assay [1] was 1.55; in assay [2], 0.329; in assay [3] it was -0.152.

The values above are taken from the supplement of paper PMC8728848.
